Reference: patent US20160102139A1 (NATIONAL UNIVERSITY CORPORATION CHIBA UNIVERSITY, published 2016)
Residue numbers refer to the chain shown, from its start. These are yes or no findings as the source states them, for the method shown. Binding seen in cells or lysates may run through a third protein. Some results given as binding are weak or reduced against the parent protein; the word gives no strength. Tags and fused reporters may be left off the sequences shown.

The chains behind the UniProt entries cited, without tags or fusion partners. Where a name states a change or a piece, a line headed by the entry shows the natural chain unless it says otherwise.
UniProt Q3THE2: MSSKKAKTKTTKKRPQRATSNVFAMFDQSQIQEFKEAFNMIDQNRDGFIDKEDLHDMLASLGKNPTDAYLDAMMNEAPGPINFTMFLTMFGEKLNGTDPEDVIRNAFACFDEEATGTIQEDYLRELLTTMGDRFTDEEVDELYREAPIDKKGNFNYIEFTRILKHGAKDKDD

Columns and labels:
Assay in all cases: GST pulldown from bone marrow extract with anti-GST antibody, band identified by LC-MS/MS
[1] = biological target: T1, mouse Myl9 (myosin regulatory light chain polypeptide 9) (mouse) (UniProt Q9CQ19)
T1 sequence: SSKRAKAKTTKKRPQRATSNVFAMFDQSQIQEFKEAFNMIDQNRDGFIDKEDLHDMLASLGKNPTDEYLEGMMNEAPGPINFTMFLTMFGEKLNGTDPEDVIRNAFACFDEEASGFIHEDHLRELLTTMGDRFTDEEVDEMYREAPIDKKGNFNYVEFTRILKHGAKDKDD

[2] = biological target: T2, mouse Myl12a (myosin regulatory light chain polypeptide 12a) (mouse) (UniProt Q3THE2)
T2 sequence: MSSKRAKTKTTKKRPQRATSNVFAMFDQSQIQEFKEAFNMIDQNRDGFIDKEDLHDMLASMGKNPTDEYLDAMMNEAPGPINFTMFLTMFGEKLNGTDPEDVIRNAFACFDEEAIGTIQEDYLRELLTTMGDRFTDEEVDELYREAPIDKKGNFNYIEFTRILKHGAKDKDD

[3] = biological target: T3, mouse Myl12b (myosin regulatory light chain polypeptide 12b) (mouse) (UniProt Q3THE2)
T3 sequence: T2 sequence with R5K, M61L, E68A, I115T

Measured: binding

B1: fused protein of mouse CD69 extracellular domain protein and glutathione S-transferase (GST-mCD69EC) (receptor, UniProt P37217 62-199, looked up, not shown: a dimerising Fc or GST)
chain: NVGKYNCPGLYEKLESSDHHVATCKNEWISYKRTCYFFSTTTKSWALAQRSCSEDAATLAVIDSEKDMTFLKRYSGELEHWIGLKNEANQTWKWANGKEFNSWFNLTGSGRCVSVNHKNVTAVDCEANFHWVCSKPSR
binds: all assays above
